Measured values published in paper PMC7949115, “Poly(ADP-ribose) polymerase 1 regulates mitochondrial DNA repair in an NAD-dependent manner”.
For at least one entry, the source does not settle the construct or the ends of the probe. For part of these data: Weaker means in comparison with the reference protein, sequence or condition of that experiment.

Key:
[1] = test system: Pol gamma A (catalytic subunit) + Pol gamma B deltaI4 (accessory subunit); test: EMSA; settings: no PARP1, Pol gamma 0.5 uM, DNA 0.75 uM; Buffer RX: 25 mM Hepes pH 7.5, 140 mM KCl, 5 mM MgCl2, 5% glycerol, 1 mM BME; EMSA incubated on ice then room temperature; recombinant protein; protein details: His,His; folded or branched DNA
[2] = test system: PARP1 (PARP-1) + Pol gamma A (catalytic subunit) + Pol gamma B deltaI4 (accessory subunit); test: EMSA with western blot; settings: Buffer RX: 25 mM Hepes pH 7.5, 140 mM KCl, 5 mM MgCl2, 5% glycerol, 1 mM BME, EMSA incubated on ice then room temperature, recombinant protein, folded or branched DNA

“CTTTTCTGGTGAAAAGCTCGTCGGCAGCGCTTGAGCAGCGGCAGCTGGTGCTGCCGCTGCTCAAGCGCTGCCGAC [d3ntgap (75-nt dumbbell with 3-nt gap)]”: binds [1]; binds more weakly ([2]; NAD+ added, ternary complex dissociates to Pol gamma-DNA); binds ([2]; NAD+ and Olaparib, dissociation prevented).
